According to the supplement of paper PMC12823440, “Inhibitors supercharge kinase turnover through native proteolytic circuits” (Nature, 2025):
Where a name gives a salt, the structure may show the parent alone. The list shows a part of the results. Hit calls seldom repeat between salt and free forms of one compound.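 Kinases, fused to nanoluciferase, were expressed in K562 cells; luminescence was measured every 4 h from 2 to 18 h as percent of control (DMSO = 100%, positive control = 0%). A time point is decreased if signal falls significantly (2 sigma). Hits were called by the authors by a rule that is not shown; the count of time points alone does not decide it.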

By UniProt entry, the sequences of proteins in these tests, tags left out. Where a name states a change or a piece, a line headed by the entry shows the natural chain unless it says otherwise.
UniProt P50613: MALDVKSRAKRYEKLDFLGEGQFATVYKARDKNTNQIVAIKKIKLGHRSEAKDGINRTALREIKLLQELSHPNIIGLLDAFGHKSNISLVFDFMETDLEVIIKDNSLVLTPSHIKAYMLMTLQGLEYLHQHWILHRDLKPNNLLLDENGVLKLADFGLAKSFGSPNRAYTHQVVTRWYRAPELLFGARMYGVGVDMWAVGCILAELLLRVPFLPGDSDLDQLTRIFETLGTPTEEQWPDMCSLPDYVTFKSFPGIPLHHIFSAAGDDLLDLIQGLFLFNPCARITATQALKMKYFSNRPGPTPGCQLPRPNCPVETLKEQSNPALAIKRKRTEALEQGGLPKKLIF
UniProt O96017, whole entry: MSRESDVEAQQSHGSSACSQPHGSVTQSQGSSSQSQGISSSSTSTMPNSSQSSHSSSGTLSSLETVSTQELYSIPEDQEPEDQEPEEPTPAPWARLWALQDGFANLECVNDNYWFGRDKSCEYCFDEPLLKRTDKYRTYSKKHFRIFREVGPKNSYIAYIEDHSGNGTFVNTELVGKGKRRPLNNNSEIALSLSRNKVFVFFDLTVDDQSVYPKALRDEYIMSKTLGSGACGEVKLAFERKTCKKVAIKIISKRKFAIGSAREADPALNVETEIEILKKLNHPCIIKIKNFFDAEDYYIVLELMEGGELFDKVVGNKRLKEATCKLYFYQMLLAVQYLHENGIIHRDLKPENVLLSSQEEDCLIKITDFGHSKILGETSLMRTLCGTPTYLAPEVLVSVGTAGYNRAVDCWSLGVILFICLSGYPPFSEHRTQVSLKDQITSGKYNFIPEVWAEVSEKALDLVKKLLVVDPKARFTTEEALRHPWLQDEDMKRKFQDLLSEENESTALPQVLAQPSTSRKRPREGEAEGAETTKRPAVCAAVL
UniProt P07333, whole entry: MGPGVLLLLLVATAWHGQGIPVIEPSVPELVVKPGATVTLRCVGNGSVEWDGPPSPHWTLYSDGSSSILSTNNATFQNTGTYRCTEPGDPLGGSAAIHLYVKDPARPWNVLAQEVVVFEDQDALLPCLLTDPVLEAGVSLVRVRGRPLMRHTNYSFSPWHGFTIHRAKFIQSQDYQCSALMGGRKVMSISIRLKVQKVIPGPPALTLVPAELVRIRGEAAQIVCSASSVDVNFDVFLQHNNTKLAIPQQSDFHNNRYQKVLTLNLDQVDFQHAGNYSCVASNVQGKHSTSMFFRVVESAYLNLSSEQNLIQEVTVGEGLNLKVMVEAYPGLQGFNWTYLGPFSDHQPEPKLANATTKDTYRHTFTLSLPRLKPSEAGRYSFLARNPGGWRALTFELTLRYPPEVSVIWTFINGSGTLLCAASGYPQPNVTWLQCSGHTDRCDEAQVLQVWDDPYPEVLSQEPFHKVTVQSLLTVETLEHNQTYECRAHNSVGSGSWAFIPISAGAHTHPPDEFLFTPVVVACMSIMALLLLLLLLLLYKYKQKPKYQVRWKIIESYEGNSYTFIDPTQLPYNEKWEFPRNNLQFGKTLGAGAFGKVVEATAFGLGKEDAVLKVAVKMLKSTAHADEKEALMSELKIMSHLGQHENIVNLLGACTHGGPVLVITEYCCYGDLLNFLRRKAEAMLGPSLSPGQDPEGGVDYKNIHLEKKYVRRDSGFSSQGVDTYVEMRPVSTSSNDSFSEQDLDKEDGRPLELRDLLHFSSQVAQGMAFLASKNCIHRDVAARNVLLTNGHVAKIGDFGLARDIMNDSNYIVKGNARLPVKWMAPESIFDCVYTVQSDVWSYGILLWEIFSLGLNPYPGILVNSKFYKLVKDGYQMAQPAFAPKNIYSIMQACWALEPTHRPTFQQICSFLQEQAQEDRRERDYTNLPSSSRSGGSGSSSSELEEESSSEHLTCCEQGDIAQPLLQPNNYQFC
UniProt P41240: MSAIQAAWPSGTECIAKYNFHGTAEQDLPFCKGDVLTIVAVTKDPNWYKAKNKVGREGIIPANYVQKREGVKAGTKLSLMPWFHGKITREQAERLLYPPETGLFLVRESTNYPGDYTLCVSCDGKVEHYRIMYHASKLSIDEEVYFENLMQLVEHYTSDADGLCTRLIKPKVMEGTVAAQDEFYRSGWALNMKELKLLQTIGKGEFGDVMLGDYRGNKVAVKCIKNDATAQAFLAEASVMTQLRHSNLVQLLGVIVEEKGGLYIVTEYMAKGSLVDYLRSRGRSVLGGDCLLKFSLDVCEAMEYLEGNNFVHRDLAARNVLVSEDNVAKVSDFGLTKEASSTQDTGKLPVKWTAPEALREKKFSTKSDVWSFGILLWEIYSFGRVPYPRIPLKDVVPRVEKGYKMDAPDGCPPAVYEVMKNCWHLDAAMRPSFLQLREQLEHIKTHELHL
UniProt P48729: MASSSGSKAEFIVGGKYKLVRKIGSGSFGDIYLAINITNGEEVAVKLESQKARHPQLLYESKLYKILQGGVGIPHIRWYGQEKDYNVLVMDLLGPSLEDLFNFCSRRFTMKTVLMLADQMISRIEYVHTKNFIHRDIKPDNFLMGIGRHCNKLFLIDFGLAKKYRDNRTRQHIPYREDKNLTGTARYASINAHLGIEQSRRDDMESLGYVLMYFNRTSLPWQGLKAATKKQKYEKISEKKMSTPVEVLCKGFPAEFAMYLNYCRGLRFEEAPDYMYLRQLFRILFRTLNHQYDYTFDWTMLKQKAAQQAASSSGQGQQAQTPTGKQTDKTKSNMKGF
UniProt P48730: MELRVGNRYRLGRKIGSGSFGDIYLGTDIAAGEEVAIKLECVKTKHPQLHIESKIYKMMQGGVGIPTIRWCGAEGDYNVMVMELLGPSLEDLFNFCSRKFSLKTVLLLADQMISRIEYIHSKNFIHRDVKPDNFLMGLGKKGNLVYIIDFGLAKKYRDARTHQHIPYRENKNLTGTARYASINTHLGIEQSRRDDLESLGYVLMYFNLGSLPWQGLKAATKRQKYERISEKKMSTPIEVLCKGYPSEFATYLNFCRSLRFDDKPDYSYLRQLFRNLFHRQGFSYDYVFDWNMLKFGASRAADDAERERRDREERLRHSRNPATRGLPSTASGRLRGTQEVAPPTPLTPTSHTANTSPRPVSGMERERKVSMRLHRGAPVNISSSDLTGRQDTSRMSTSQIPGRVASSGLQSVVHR
UniProt Q08345: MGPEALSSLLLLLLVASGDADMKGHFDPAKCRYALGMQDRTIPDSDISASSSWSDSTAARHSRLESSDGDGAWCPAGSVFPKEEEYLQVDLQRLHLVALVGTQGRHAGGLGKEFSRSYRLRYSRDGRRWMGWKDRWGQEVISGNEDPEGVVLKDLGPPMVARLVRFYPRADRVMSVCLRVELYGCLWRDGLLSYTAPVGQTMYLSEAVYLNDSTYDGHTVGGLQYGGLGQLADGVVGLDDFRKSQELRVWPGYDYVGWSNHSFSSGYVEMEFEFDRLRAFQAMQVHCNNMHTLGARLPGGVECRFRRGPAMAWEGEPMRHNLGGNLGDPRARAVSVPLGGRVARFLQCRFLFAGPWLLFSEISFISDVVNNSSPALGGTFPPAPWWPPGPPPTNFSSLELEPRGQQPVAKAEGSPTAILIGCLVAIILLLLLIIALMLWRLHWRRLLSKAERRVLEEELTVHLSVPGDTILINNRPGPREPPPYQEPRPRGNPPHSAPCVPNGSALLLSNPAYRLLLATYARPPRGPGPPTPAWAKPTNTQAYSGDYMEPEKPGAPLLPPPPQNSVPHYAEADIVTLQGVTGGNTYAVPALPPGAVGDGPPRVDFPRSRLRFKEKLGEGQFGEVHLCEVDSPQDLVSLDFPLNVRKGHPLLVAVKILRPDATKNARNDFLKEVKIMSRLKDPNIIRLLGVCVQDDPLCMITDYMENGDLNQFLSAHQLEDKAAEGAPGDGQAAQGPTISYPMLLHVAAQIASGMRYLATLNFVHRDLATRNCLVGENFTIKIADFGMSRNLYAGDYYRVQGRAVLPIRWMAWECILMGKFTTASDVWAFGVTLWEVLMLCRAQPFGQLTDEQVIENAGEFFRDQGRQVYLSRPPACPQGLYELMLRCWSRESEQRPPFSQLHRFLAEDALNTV
UniProt Q9Y463, whole entry, looked up: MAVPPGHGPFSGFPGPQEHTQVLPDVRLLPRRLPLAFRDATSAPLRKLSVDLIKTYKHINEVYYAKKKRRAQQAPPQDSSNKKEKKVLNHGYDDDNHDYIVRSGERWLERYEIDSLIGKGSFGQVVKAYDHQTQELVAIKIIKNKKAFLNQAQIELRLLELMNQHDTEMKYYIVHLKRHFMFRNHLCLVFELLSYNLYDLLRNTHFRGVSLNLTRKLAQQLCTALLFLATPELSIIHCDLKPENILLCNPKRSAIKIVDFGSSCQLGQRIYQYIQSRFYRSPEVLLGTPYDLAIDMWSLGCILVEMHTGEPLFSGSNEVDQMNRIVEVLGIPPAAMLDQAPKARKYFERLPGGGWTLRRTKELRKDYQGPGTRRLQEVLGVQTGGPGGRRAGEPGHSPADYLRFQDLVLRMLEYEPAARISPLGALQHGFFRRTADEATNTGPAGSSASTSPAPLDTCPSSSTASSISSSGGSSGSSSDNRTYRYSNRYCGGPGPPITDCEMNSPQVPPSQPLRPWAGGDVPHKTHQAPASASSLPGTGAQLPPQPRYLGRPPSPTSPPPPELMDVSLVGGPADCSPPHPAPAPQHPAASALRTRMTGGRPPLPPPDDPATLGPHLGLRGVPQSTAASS
UniProt Q92630: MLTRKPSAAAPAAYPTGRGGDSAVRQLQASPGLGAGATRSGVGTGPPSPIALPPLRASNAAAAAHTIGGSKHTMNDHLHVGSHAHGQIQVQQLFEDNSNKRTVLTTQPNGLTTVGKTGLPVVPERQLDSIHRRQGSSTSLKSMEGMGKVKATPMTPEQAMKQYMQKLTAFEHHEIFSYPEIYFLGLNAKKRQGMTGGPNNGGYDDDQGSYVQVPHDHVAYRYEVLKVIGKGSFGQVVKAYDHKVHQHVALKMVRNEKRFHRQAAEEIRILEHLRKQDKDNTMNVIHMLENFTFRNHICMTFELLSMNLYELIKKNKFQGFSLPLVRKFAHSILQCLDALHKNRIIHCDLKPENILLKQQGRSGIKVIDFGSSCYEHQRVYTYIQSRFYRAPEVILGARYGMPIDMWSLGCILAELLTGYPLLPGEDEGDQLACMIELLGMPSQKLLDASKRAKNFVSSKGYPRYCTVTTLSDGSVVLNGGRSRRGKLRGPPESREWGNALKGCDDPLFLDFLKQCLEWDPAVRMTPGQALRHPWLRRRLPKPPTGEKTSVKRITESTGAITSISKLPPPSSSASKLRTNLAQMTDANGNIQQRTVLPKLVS
UniProt P21860, whole entry: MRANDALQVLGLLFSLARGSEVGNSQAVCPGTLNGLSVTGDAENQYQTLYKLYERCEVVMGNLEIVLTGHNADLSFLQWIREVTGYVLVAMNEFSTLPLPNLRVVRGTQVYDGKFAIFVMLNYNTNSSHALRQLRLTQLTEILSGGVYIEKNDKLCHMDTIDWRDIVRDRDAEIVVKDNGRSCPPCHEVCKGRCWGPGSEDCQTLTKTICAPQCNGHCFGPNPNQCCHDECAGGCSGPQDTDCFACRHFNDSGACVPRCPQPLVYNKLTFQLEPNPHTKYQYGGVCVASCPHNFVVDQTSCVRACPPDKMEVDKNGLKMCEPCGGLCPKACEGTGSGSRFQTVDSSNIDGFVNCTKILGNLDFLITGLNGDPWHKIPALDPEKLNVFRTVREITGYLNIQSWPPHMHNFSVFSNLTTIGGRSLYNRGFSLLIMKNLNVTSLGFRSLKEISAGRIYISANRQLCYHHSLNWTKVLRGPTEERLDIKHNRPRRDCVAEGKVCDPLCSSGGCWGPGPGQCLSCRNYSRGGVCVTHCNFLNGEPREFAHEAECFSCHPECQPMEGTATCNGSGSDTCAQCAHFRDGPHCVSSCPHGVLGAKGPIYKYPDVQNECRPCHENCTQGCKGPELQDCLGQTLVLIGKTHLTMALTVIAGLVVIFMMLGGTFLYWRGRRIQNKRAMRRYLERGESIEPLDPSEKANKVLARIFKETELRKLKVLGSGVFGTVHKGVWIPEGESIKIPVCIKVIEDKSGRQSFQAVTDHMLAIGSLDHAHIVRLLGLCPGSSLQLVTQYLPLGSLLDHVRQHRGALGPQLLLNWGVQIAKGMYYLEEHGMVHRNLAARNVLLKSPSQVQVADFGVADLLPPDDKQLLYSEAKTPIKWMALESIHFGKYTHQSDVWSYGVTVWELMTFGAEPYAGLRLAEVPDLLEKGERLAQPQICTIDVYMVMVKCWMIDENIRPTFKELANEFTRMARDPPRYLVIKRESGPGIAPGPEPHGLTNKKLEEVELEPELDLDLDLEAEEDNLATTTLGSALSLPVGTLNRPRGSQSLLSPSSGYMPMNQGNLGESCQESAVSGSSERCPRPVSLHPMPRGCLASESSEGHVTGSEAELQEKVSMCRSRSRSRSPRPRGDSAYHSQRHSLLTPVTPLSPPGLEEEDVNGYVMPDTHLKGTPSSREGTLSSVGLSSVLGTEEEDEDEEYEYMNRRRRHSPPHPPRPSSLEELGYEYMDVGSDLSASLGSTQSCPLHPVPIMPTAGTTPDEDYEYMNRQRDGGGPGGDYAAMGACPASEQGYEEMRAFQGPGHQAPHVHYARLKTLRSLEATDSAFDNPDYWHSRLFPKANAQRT

Assays:
Assay in all cases: kinase-Nluc reporter destabilization hit call (1 = scored as downregulated) (binary); higher = compound decreases kinase abundance
Conditions in all cases: K562; 2-18 h
CDK7 = CDK7 (UniProt P50613)
CDK9 = CDK9 (UniProt P50750)
CHEK2 = CHEK2 (UniProt O96017)
CSF1R = CSF1R (UniProt P07333)
CSK = CSK (UniProt P41240)
CSNK1A1 = CSNK1A1 (UniProt P48729)
CSNK1D = CSNK1D (UniProt P48730)
DDR1 = DDR1 (UniProt Q08345)
DYRK1B = DYRK1B (UniProt Q9Y463)
DYRK2 = DYRK2 (UniProt Q92630)
EGFR = EGFR (UniProt P00533)
EGFR_G719S = EGFR_G719S (UniProt P00533)
EGFR_G719S_T790M = EGFR_G719S_T790M (UniProt P00533)
EGFR_L718V = EGFR_L718V (UniProt P00533)
EGFR_L858R = EGFR_L858R (UniProt P00533)
EGFR_L861Q = EGFR_L861Q (UniProt P00533)
EGFR_T790M = EGFR_T790M (UniProt P00533)
EPHA2 = EPHA2 (UniProt P29317)
ERBB3 = ERBB3 (UniProt P21860)
[1] = molecular target: ERBB4_R711C (clone: ERBB4_mut) (UniProt Q15303)

Measured: kinase-Nluc reporter destabilization hit call

CN1CCN(c2cccc(Nc3nc4c(-c5ccc(S(C)(=O)=O)cc5)cccn4n3)c2)CC1 (10 µM)
inactive: CDK7 = 0 | CDK9 = 0 | CHEK2 = 0 | CSF1R 0 | CSK 0 | CSNK1A1 = 0 | CSNK1D 0 | DDR1 = 0 | DYRK1B 0 | DYRK2 = 0 | EGFR 0 | EGFR_G719S 0 | EGFR_G719S_T790M 0 | EGFR_L718V 0 | EGFR_L858R 0 | EGFR_L861Q 0 | EGFR_T790M 0 | EPHA2 = 0 | ERBB3 = 0 | [1] 0

O=C(Nc1cn[nH]c1-c1ccccn1)c1nn(C2CCNCC2)cc1Cl (10 µM)
inactive: CDK7 = 0 | CDK9 = 0 | CHEK2 = 0 | CSF1R 0 | CSK 0 | CSNK1A1 = 0 | CSNK1D 0 | DDR1 = 0 | DYRK1B 0 | DYRK2 = 0 | EGFR 0 | EGFR_G719S 0 | EGFR_G719S_T790M 0 | EGFR_L718V 0 | EGFR_L858R 0 | EGFR_L861Q 0 | EGFR_T790M 0 | EPHA2 = 0 | ERBB3 = 0 | [1] 0

COc1cc(Nc2ncc(F)c(Nc3ccc4c(n3)N(COP(=O)(O)O)C(=O)C(C)(C)O4)n2)cc(OC)c1OC [Fostamatinib Disodium] (10 µM)
inactive: CDK7 = 0 | CDK9 = 0 | CHEK2 = 0 | CSF1R 0 | CSK 0 | CSNK1A1 = 0 | CSNK1D 0 | DDR1 = 0 | DYRK1B 0 | DYRK2 = 0 | EGFR 0 | EGFR_G719S 0 | EGFR_G719S_T790M 0 | EGFR_L718V 0 | EGFR_L858R 0 | EGFR_L861Q 0 | EGFR_T790M 0 | EPHA2 = 0 | ERBB3 = 0 | [1] 0

c1ccc(-c2[nH]ncc2-c2ccnc3ccccc23)nc1 (10 µM)
inactive: CDK7 = 0 | CDK9 = 0 | CHEK2 = 0 | CSF1R 0 | CSK 0 | CSNK1A1 = 0 | CSNK1D 0 | DDR1 = 0 | DYRK1B 0 | DYRK2 = 0 | EGFR 0 | EGFR_G719S 0 | EGFR_G719S_T790M 0 | EGFR_L718V 0 | EGFR_L858R 0 | EGFR_L861Q 0 | EGFR_T790M 0 | EPHA2 = 0 | ERBB3 = 0 | [1] 0

As a working copy, 2 of the compounds above.
CN1CCN(c2cccc(Nc3nc4c(-c5ccc(S(C)(=O)=O)cc5)cccn4n3)c2)CC1 (10 µM)
inactive: CDK7 = 0 | CDK9 = 0 | CHEK2 = 0 | CSF1R 0 | CSK 0 | CSNK1A1 = 0 | CSNK1D 0 | DDR1 = 0 | DYRK1B 0 | DYRK2 = 0 | EGFR 0 | EGFR_G719S 0 | EGFR_G719S_T790M 0 | EGFR_L718V 0 | EGFR_L858R 0 | EGFR_L861Q 0 | EGFR_T790M 0 | EPHA2 = 0 | ERBB3 = 0 | [1] 0

O=C(Nc1cn[nH]c1-c1ccccn1)c1nn(C2CCNCC2)cc1Cl (10 µM)
inactive: CDK7 = 0 | CDK9 = 0 | CHEK2 = 0 | CSF1R 0 | CSK 0 | CSNK1A1 = 0 | CSNK1D 0 | DDR1 = 0 | DYRK1B 0 | DYRK2 = 0 | EGFR 0 | EGFR_G719S 0 | EGFR_G719S_T790M 0 | EGFR_L718V 0 | EGFR_L858R 0 | EGFR_L861Q 0 | EGFR_T790M 0 | EPHA2 = 0 | ERBB3 = 0 | [1] 0

Next part.

C[C@H](c1ccnc(Nc2nc3ccc(-c4cc(N(C)C)ncn4)cc3[nH]2)c1)N1CCN(C(=O)CC(F)(F)F)CC1 (2.5 µM)
inactive: CDK7 = 0 | CDK9 = 0 | CHEK2 = 0 | CSF1R 0 | CSK 0 | CSNK1A1 = 0 | CSNK1D 0 | DDR1 = 0 | DYRK1B 0 | DYRK2 = 0 | EGFR 0 | EGFR_G719S 0 | EGFR_G719S_T790M 0 | EGFR_L718V 0 | EGFR_L858R 0 | EGFR_L861Q 0 | EGFR_T790M 0 | EPHA2 = 0 | ERBB3 = 0 | [1] 0

Oc1ccc(Nc2nc(-c3ccc(Cl)cc3)cs2)cc1 (10 µM)
inactive: CDK7 = 0 | CDK9 = 0 | CHEK2 = 0 | CSF1R 0 | CSK 0 | CSNK1A1 = 0 | CSNK1D 0 | DDR1 = 0 | DYRK1B 0 | DYRK2 = 0 | EGFR 0 | EGFR_G719S 0 | EGFR_G719S_T790M 0 | EGFR_L718V 0 | EGFR_L858R 0 | EGFR_L861Q 0 | EGFR_T790M 0 | EPHA2 = 0 | ERBB3 = 0 | [1] 0

O=C(O)CCC(=O)Nc1ccc(Br)cn1 [Bikinin] (10 µM)
inactive: CDK7 = 0 | CDK9 = 0 | CHEK2 = 0 | CSF1R 0 | CSK 0 | CSNK1A1 = 0 | CSNK1D 0 | DDR1 = 0 | DYRK1B 0 | DYRK2 = 0 | EGFR 0 | EGFR_G719S 0 | EGFR_G719S_T790M 0 | EGFR_L718V 0 | EGFR_L858R 0 | EGFR_L861Q 0 | EGFR_T790M 0 | EPHA2 = 0 | ERBB3 = 0 | [1] 0

CC[C@@H](Oc1nc(Oc2cc(C)cc(-c3cccc(CN)c3)c2)c(F)cc1F)C(=O)O (10 µM)
inactive: CDK7 = 0 | CDK9 = 0 | CHEK2 = 0 | CSF1R 0 | CSK 0 | CSNK1A1 = 0 | CSNK1D 0 | DDR1 = 0 | DYRK1B 0 | DYRK2 = 0 | EGFR 0 | EGFR_G719S 0 | EGFR_G719S_T790M 0 | EGFR_L718V 0 | EGFR_L858R 0 | EGFR_L861Q 0 | EGFR_T790M 0 | EPHA2 = 0 | ERBB3 = 0 | [1] 0

C=C(CC[C@@H](C(=O)O)[C@H]1[C@H](O)C[C@@]2(C)C3=C(CC[C@]12C)[C@@]1(C)CC[C@H](OC(C)=O)C(C)(C)[C@@H]1CC3)C(C)C [Pachymic acid] (10 µM)
inactive: CDK7 = 0 | CDK9 = 0 | CHEK2 = 0 | CSF1R 0 | CSK 0 | CSNK1A1 = 0 | CSNK1D 0 | DDR1 = 0 | DYRK1B 0 | DYRK2 = 0 | EGFR 0 | EGFR_G719S 0 | EGFR_G719S_T790M 0 | EGFR_L718V 0 | EGFR_L858R 0 | EGFR_L861Q 0 | EGFR_T790M 0 | EPHA2 = 0 | ERBB3 = 0 | [1] 0

Cc1ccccc1-c1c2nccc(-c3ccc(F)cc3F)c2cc[n+]1[O-] (10 µM)
inactive: CDK7 = 0 | CDK9 = 0 | CHEK2 = 0 | CSF1R 0 | CSK 0 | CSNK1A1 = 0 | CSNK1D 0 | DDR1 = 0 | DYRK1B 0 | DYRK2 = 0 | EGFR 0 | EGFR_G719S 0 | EGFR_G719S_T790M 0 | EGFR_L718V 0 | EGFR_L858R 0 | EGFR_L861Q 0 | EGFR_T790M 0 | EPHA2 = 0 | ERBB3 = 0 | [1] 0

O=C1NC(=O)/C(=C/c2ccc3nccnc3c2)S1 (10 µM)
inactive: CDK7 = 0 | CDK9 = 0 | CHEK2 = 0 | CSF1R 0 | CSK 0 | CSNK1A1 = 0 | CSNK1D 0 | DDR1 = 0 | DYRK1B 0 | DYRK2 = 0 | EGFR 0 | EGFR_G719S 0 | EGFR_G719S_T790M 0 | EGFR_L718V 0 | EGFR_L858R 0 | EGFR_L861Q 0 | EGFR_T790M 0 | EPHA2 = 0 | ERBB3 = 0 | [1] 0

CC1(C)C(O[C@@H]2OC[C@@H](O)[C@H](O)[C@H]2O)CC[C@]23CC24CC[C@]2(C)[C@@H]([C@@]5(C)CC[C@@H](C(C)(C)O)O5)[C@H](O)C[C@@]2(C)C4C[C@@H](O[C@@H]2O[C@H](CO)[C@@H](O)[C@H](O)[C@H]2O)C13 (stereo not given in full) [Astragaloside IV] (10 µM)
inactive: CDK7 = 0 | CDK9 = 0 | CHEK2 = 0 | CSF1R 0 | CSK 0 | CSNK1A1 = 0 | CSNK1D 0 | DDR1 = 0 | DYRK1B 0 | DYRK2 = 0 | EGFR 0 | EGFR_G719S 0 | EGFR_G719S_T790M 0 | EGFR_L718V 0 | EGFR_L858R 0 | EGFR_L861Q 0 | EGFR_T790M 0 | EPHA2 = 0 | ERBB3 = 0 | [1] 0

COCCNc1nc2ccc(C#CC3(O)CCCCC3)cc2n1-c1ccnc(N)n1 (10 µM)
inactive: CDK7 = 0 | CDK9 = 0 | CHEK2 = 0 | CSF1R 0 | CSK 0 | CSNK1A1 = 0 | CSNK1D 0 | DDR1 = 0 | DYRK1B 0 | DYRK2 = 0 | EGFR 0 | EGFR_G719S 0 | EGFR_G719S_T790M 0 | EGFR_L718V 0 | EGFR_L858R 0 | EGFR_L861Q 0 | EGFR_T790M 0 | EPHA2 = 0 | ERBB3 = 0 | [1] 0

C=CC(=O)Nc1ccc(CN2C(=O)N(c3cc(OC)cc(OC)c3)Cc3cnc(Nc4ccc(N5CCN(C)CC5)cc4)nc32)cc1 (2.5 µM)
inactive: CDK7 = 0 | CDK9 = 0 | CHEK2 = 0 | CSF1R 0 | CSK 0 | CSNK1A1 = 0 | CSNK1D 0 | DDR1 = 0 | DYRK1B 0 | DYRK2 = 0 | EGFR 0 | EGFR_G719S 0 | EGFR_G719S_T790M 0 | EGFR_L718V 0 | EGFR_L858R 0 | EGFR_L861Q 0 | EGFR_T790M 0 | EPHA2 = 0 | ERBB3 = 0 | [1] 0

COc1cc(OC2CCN(C)CC2)ccc1Nc1ncc2c(n1)n(C1CCCC1)c(=O)n2C (10 µM)
inactive: CDK7 = 0 | CDK9 = 0 | CHEK2 = 0 | CSF1R 0 | CSK 0 | CSNK1A1 = 0 | CSNK1D 0 | DDR1 = 0 | DYRK1B 0 | DYRK2 = 0 | EGFR 0 | EGFR_G719S 0 | EGFR_G719S_T790M 0 | EGFR_L718V 0 | EGFR_L858R 0 | EGFR_L861Q 0 | EGFR_T790M 0 | EPHA2 = 0 | ERBB3 = 0 | [1] 0

Cc1ccc(OCCSc2ncccn2)c(Br)c1 [ZLN024 (hydrochloride)] (10 µM)
inactive: CDK7 = 0 | CDK9 = 0 | CHEK2 = 0 | CSF1R 0 | CSK 0 | CSNK1A1 = 0 | CSNK1D 0 | DDR1 = 0 | DYRK1B 0 | DYRK2 = 0 | EGFR 0 | EGFR_G719S 0 | EGFR_G719S_T790M 0 | EGFR_L718V 0 | EGFR_L858R 0 | EGFR_L861Q 0 | EGFR_T790M 0 | EPHA2 = 0 | ERBB3 = 0 | [1] 0

C=C1C(=O)O[C@H]2C[C@H](C)C(/C=C/C(C)=O)=CC[C@H]12 [Xanthatin] (2.5 µM)
inactive: CDK7 = 0 | CDK9 = 0 | CHEK2 = 0 | CSF1R 0 | CSK 0 | CSNK1A1 = 0 | CSNK1D 0 | DDR1 = 0 | DYRK1B 0 | DYRK2 = 0 | EGFR 0 | EGFR_G719S 0 | EGFR_G719S_T790M 0 | EGFR_L718V 0 | EGFR_L858R 0 | EGFR_L861Q 0 | EGFR_T790M 0 | EPHA2 = 0 | ERBB3 = 0 | [1] 0

Nc1nc(F)nc2c1ncn2[C@@H]1O[C@H](CO)[C@@H](O)[C@@H]1O [Fludarabine] (10 µM)
inactive: CDK7 = 0 | CDK9 = 0 | CHEK2 = 0 | CSF1R 0 | CSK 0 | CSNK1A1 = 0 | CSNK1D 0 | DDR1 = 0 | DYRK1B 0 | DYRK2 = 0 | EGFR 0 | EGFR_G719S 0 | EGFR_G719S_T790M 0 | EGFR_L718V 0 | EGFR_L858R 0 | EGFR_L861Q 0 | EGFR_T790M 0 | EPHA2 = 0 | ERBB3 = 0 | [1] 0
